The supplement of paper PMC10849652
This is one part of the list.

Protein sequences, listed by entry. Tags and fused reporters are not part of them. Lines headed by an entry give the natural chain unless they say otherwise; changes in a name come on top.
UniProt P30622: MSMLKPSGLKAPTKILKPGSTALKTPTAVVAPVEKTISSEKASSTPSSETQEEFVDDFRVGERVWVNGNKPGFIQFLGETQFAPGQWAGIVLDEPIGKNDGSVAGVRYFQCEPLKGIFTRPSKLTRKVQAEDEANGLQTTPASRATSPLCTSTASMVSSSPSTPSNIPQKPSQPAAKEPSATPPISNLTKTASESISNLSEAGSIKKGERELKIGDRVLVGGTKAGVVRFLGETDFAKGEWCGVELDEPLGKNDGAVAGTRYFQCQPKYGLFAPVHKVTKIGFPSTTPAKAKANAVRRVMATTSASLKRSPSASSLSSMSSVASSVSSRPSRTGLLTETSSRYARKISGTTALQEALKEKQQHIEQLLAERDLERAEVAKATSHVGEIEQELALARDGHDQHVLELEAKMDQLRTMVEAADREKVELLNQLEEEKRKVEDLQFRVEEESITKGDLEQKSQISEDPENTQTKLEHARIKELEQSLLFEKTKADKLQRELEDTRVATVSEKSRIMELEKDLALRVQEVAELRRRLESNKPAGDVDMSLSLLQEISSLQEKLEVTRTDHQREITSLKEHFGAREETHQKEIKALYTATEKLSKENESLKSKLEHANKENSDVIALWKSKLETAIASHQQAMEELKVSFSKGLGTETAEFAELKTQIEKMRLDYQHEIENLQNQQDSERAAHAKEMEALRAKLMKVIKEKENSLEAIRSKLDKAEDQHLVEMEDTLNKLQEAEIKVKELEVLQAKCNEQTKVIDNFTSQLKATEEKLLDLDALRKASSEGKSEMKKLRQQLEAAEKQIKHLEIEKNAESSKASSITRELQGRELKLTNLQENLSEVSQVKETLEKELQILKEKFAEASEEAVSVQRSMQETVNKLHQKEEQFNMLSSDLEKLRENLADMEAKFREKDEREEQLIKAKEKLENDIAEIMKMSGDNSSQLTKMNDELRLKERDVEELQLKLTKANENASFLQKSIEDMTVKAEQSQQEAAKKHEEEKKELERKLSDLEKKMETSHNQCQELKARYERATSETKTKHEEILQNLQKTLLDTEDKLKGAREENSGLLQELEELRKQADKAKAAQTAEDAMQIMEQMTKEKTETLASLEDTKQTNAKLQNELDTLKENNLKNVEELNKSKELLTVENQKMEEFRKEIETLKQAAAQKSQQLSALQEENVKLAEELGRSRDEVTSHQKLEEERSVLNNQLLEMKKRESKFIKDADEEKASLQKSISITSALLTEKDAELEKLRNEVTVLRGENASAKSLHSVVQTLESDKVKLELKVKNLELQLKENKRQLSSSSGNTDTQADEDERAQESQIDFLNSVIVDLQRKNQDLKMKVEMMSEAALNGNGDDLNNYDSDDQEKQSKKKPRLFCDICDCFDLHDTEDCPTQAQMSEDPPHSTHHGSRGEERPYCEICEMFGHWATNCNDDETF
UniProt Q9P2E5: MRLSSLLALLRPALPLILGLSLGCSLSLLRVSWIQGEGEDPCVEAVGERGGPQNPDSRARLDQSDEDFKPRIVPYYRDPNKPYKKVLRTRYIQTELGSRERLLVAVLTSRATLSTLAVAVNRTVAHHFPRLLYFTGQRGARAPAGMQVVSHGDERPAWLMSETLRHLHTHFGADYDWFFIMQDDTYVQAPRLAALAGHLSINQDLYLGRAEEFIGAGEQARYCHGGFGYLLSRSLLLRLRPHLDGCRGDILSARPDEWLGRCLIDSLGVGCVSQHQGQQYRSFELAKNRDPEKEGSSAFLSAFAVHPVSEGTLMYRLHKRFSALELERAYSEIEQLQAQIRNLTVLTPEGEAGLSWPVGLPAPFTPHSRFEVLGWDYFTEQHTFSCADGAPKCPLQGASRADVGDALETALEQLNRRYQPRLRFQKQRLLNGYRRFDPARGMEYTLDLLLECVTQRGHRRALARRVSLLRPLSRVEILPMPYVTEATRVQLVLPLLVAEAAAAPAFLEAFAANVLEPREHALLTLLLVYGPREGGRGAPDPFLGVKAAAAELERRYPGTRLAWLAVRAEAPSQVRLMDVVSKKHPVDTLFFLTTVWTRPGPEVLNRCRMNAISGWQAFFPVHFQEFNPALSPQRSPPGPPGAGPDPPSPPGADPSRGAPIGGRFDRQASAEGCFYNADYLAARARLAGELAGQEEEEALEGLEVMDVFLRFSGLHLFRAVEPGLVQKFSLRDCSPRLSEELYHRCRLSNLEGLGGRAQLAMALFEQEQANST
UniProt G5E9Z2: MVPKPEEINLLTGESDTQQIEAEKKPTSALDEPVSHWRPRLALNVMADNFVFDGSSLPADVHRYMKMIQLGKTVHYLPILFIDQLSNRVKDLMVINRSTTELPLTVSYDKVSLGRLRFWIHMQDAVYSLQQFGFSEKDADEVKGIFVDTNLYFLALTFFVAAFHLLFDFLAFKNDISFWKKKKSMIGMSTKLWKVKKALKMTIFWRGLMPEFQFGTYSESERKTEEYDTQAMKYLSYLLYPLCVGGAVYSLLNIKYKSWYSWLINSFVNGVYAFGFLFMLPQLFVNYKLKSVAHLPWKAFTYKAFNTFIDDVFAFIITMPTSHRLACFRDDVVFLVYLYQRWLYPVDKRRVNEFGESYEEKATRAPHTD
UniProt O43529: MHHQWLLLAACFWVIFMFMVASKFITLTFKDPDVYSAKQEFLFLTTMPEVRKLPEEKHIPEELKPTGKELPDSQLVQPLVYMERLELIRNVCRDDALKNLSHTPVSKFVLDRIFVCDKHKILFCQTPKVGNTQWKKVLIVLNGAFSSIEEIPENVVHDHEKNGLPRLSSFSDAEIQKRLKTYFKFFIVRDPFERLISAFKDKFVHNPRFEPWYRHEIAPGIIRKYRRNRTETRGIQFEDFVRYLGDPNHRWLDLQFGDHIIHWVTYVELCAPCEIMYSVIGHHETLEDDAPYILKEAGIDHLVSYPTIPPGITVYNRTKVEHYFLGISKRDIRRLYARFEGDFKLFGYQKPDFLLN
UniProt Q8N2M8: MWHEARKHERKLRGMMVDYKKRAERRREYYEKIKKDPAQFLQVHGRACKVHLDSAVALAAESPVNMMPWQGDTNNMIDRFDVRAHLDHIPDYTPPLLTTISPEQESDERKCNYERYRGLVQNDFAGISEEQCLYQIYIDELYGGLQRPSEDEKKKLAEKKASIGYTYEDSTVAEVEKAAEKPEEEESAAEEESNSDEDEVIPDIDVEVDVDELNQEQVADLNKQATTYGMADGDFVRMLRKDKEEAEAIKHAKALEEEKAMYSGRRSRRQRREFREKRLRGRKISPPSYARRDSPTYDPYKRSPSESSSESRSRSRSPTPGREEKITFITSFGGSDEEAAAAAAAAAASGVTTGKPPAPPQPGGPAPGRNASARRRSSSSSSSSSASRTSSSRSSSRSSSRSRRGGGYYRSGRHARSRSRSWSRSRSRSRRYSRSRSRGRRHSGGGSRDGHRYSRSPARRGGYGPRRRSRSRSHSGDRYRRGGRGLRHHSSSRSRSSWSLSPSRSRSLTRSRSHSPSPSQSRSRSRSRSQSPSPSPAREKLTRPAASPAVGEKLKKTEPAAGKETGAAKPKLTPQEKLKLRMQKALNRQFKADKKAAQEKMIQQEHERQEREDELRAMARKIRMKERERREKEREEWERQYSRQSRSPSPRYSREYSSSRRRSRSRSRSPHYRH
UniProt O75503: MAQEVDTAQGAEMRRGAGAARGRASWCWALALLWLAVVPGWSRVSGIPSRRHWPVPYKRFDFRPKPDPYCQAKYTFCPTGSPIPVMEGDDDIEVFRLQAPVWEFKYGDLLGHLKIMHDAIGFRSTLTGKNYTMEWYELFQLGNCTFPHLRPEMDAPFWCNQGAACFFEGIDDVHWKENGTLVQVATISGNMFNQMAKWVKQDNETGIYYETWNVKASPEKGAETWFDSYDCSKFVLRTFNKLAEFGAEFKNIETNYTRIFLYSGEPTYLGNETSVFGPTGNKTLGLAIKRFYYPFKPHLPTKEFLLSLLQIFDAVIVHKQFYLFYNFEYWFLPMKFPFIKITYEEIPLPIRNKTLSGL
UniProt P51911: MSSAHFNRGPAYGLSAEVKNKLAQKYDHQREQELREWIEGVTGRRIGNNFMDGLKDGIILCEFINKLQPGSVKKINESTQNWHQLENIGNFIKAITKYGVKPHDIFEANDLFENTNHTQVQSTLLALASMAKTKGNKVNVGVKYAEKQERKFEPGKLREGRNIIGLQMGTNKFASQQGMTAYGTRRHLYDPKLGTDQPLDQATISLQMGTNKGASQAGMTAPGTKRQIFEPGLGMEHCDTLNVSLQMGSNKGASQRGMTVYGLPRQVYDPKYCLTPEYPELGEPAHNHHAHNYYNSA
UniProt Q8WUD6: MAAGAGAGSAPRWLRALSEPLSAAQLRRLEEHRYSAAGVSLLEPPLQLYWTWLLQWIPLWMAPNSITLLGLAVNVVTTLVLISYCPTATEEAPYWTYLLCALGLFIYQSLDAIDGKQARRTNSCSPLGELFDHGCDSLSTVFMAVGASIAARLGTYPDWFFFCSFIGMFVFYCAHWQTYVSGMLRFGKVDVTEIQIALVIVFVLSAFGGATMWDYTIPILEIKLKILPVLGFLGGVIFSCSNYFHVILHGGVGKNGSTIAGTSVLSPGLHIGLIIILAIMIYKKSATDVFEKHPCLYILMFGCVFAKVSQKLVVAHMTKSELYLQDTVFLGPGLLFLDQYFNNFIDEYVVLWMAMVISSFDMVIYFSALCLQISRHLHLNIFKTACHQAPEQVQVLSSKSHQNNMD
UniProt Q14677: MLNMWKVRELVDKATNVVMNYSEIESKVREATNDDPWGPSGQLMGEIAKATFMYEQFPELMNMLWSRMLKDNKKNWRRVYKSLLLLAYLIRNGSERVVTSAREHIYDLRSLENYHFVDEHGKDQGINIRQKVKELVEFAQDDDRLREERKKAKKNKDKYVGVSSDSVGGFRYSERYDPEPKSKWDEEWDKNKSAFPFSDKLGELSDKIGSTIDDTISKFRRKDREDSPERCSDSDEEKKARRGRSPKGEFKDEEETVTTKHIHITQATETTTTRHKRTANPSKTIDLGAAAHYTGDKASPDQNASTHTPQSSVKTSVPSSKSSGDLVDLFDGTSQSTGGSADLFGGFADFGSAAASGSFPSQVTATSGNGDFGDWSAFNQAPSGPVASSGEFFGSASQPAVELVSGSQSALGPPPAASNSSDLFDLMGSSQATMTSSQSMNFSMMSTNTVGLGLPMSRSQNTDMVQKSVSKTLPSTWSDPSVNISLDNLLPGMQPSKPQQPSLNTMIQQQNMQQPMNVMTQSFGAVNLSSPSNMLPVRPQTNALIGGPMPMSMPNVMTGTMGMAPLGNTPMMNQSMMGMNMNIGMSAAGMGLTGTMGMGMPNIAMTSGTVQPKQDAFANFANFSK
UniProt Q8IZR5: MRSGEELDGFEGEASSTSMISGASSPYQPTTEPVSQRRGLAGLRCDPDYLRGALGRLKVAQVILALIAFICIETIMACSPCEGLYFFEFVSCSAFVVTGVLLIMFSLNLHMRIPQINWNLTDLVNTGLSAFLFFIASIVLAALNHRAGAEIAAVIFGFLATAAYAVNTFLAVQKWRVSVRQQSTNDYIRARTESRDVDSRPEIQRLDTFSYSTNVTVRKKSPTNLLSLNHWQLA
UniProt P12277: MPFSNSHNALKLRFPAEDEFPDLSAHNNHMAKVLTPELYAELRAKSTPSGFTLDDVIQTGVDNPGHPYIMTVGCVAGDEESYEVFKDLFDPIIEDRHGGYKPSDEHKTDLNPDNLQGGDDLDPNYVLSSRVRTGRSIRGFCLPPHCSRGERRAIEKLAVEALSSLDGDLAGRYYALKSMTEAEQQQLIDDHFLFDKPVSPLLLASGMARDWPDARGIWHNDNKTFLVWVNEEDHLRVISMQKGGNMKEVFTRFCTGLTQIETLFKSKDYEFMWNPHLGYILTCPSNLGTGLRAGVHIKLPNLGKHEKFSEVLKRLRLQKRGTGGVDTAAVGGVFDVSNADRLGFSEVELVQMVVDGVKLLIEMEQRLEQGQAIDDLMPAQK
UniProt Q9Y3D0: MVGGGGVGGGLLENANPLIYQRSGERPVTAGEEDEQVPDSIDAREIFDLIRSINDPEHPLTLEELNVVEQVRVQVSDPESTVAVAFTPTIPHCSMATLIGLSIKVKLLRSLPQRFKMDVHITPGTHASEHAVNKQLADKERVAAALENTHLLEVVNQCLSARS
UniProt Q86X95: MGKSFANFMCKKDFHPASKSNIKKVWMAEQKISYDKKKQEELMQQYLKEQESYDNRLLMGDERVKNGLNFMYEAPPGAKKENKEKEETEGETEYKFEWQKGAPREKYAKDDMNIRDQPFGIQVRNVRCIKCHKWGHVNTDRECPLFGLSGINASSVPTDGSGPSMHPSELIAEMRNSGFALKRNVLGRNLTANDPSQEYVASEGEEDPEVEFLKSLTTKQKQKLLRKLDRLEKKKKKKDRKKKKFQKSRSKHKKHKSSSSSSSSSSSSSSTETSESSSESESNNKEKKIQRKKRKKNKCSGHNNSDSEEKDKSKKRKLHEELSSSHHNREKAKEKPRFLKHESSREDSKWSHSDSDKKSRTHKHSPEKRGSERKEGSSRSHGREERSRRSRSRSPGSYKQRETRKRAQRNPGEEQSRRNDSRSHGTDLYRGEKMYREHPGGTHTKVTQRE

Key:
Assay in all cases: log2 fold change, soluble protein after heating vs DMSO (PISA); higher = thermal stabilisation; K562 cells, 10 uM, 30 min; active = over 0.2 and 3.5 SD of the protein, either way, in both replicates (recomputed)
[1] = compound: CS(=O)(=O)c1ccc(-c2cnc(N)c(C(=O)Nc3ccccc3)n2)cc1
Method in brief: (§1)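 Soluble protein was defined as the supernatant after 21,000xg for 90 min. It came from K562 cells at 2×10^6 cells/mL given 10 μM compound for 30 min, heated in aliquots for 3 min across 48°C-58°C, pooled, and extracted in PBS with 0.5% NP-40 at 4°C, and was quantified by TMTpro 16plex LC-MS/MS with equalised channel sums. Thermal stability against control samples, from duplicates, is reported as log2 fold change.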

[2] = compound: C[C@@H]1COCCN1C2=NC(=NC(=C2)C3(CC3)S(=O)(=O)C)C4=C5C=CNC5=CC=C4
Method in brief: as §1

[3] = compound: C[C@H](C1=CC=C(C=C1)C(=O)NC2=C3C=CNC3=NC=C2)N
Method in brief: as §1

gandotinib = compound: Cc1cc(Nc2cc(CN3CCOCC3)c3nc(C)c(Cc4ccc(Cl)cc4F)n3n2)n[nH]1 [gandotinib]
Method in brief: as §1

ispinesib = compound: Cc1ccc(C(=O)N(CCCN)[C@@H](c2nc3cc(Cl)ccc3c(=O)n2Cc2ccccc2)C(C)C)cc1 [ispinesib]
Method in brief: as §1

bafetinib = compound: Cc1ccc(NC(=O)c2ccc(CN3CC[C@H](N(C)C)C3)c(C(F)(F)F)c2)cc1Nc1nccc(-c2cncnc2)n1 [bafetinib]
Method in brief: as §1

[4] = compound: Cc1cccc(CC(=O)N2CCc3c2ccc(-c2cn(C)c4ncnc(N)c24)c3F)n1
Method in brief: as §1

nilotinib = compound: Cc1cn(-c2cc(NC(=O)c3ccc(C)c(Nc4nccc(-c5cccnc5)n4)c3)cc(C(F)(F)F)c2)cn1 [nilotinib]
Method in brief: as §1

[5] = compound: Cc1nc(Nc2n[nH]c3c2CN(C(=O)N[C@H](CN(C)C)c2ccccc2)C3(C)C)c2sccc2n1
Method in brief: as §1

[6] = compound: Cc1ncc(-c2ccnc(Nc3ccc(S(C)(=O)=O)cc3)n2)n1C(C)C
Method in brief: as §1

[7] = compound: Cn1cc(-c2ccc3c(c2)CCN3C(=O)Cc2cccc(C(F)(F)F)c2)c2c(N)ncnc21
Method in brief: as §1

[8] = compound: Cn1cc(-c2ccc3nnc(C(F)(F)c4ccc5ncccc5c4)n3n2)cn1
Method in brief: as §1

tipifarnib = compound: Cn1cncc1[C@@](N)(c1ccc(Cl)cc1)c1ccc2c(c1)c(-c1cccc(Cl)c1)cc(=O)n2C [tipifarnib]
Method in brief: as §1

mubritinib = compound: FC(F)(F)c1ccc(/C=C/c2nc(COc3ccc(CCCCn4ccnn4)cc3)co2)cc1 [mubritinib]
Method in brief: as §1

tozasertib = compound: Cc1cc(Nc2cc(N3CCN(C)CC3)nc(Sc3ccc(NC(=O)C4CC4)cc3)n2)n[nH]1 [tozasertib]
Method in brief: as §1

duvelisib = compound: C[C@H](Nc1ncnc2nc[nH]c12)c1cc2cccc(Cl)c2c(=O)n1-c1ccccc1 [duvelisib]
Method in brief: as §1

[9] = compound: Cc1cc(SCc2sc(-c3ccc(C(F)(F)F)cc3)nc2C)ccc1OCC(=O)O
Method in brief: as §1

dasatinib = compound: Cc1nc(Nc2ncc(C(=O)Nc3c(C)cccc3Cl)s2)cc(N2CCN(CCO)CC2)n1 [dasatinib]
Method in brief: as §1

crizotinib = compound: C[C@@H](Oc1cc(-c2cnn(C3CCNCC3)c2)cnc1N)c1c(Cl)ccc(F)c1Cl [crizotinib]
Method in brief: as §1

doramapimod = compound: Cc1ccc(-n2nc(C(C)(C)C)cc2NC(=O)Nc2ccc(OCCN3CCOCC3)c3ccccc23)cc1 [doramapimod]
Method in brief: as §1

Target | log2 fold change [1] | log2 fold change [2] | log2 fold change [3] | log2 fold change (gandotinib) | log2 fold change (ispinesib) | log2 fold change (bafetinib) | log2 fold change [4] | log2 fold change (nilotinib) | log2 fold change [5] | log2 fold change [6] | log2 fold change [7] | log2 fold change [8] | log2 fold change (tipifarnib) | log2 fold change (mubritinib) | log2 fold change (tozasertib) | log2 fold change (duvelisib) | log2 fold change [9] | log2 fold change (dasatinib) | log2 fold change (crizotinib) | log2 fold change (doramapimod)
CLIP1 isoform 2 (UniProt P30622) | inactive: -0.014 | inactive: 0.072 | inactive: -0.01 | inactive: 0.105 | inactive: 0.034 | inactive: -0.05 | inactive: 0.08 | inactive: 0.012 | inactive: -0.015 | inactive: -0.043 | inactive: 0.065 | inactive: -0.031 | inactive: 0.021 | inactive: 0.037 | – | – | – | – | – | –
CLN6 (UniProt Q9NWW5) | inactive: -0.007 | inactive: 0.055 | inactive: -0.078 | – | inactive: -0.049 | inactive: 0.045 | – | inactive: 0 | inactive: 0.037 | inactive: -0.055 | inactive: -0.367 | inactive: 0.047 | inactive: -0.053 | inactive: 0.013 | inactive: -0.063 | – | – | – | – | –
CHPF2 (UniProt Q9P2E5) | inactive: 0.082 | inactive: -0.099 | inactive: 0.177 | inactive: -0.033 | inactive: -0.056 | inactive: -0.19 | inactive: -0.005 | inactive: -0.017 | inactive: -0.188 | inactive: 0.064 | inactive: -0.125 | inactive: 0.07 | inactive: 0.157 | inactive: -0.021 | inactive: -0.098 | inactive: -0.078 | inactive: 0.037 | inactive: 0.055 | – | –
COG1 (UniProt Q8WTW3) | inactive: -0.034 | – | inactive: 0.227 | inactive: 0.076 | inactive: -0.052 | – | inactive: 0.058 | – | – | – | inactive: -0.246 | inactive: -0.127 | inactive: 0.018 | – | inactive: -0.006 | inactive: 0.029 | inactive: 0.117 | inactive: 0.027 | inactive: -0.01 | inactive: 0.193
CLPTM1L (UniProt G5E9Z2) | inactive: -0.317 | inactive: 0.073 | inactive: 0.067 | inactive: -0.382 | – | inactive: 0.156 | inactive: 0.176 | inactive: -0.22 | inactive: 0.099 | inactive: -0.053 | inactive: 0.037 | – | – | inactive: 0.047 | – | – | – | – | – | –
CHST10 (UniProt O43529) | inactive: 0.235 | inactive: 0.014 | inactive: 0.009 | inactive: 0.087 | inactive: -0.009 | inactive: -0.036 | inactive: 0.052 | inactive: 0.092 | inactive: -0.081 | inactive: 0.104 | inactive: 0.071 | inactive: -0.09 | inactive: 0.05 | inactive: 0.064 | – | – | – | – | inactive: -0.206 | inactive: 0.015
COA6 isoform 2 (UniProt Q5JTJ3) | inactive: 0.026 | inactive: -0.07 | inactive: -0.155 | inactive: 0.082 | inactive: 0.035 | inactive: -0.093 | inactive: 0.002 | inactive: -0.064 | inactive: 0.02 | inactive: 0.012 | inactive: -0.097 | inactive: 0.035 | inactive: -0.008 | inactive: 0.041 | – | – | inactive: 0.159 | inactive: -0.017 | inactive: -0.001 | inactive: 0
CLASRP (UniProt Q8N2M8) | inactive: 0.116 | inactive: -0.044 | inactive: -0.075 | inactive: 0.12 | – | inactive: 0.035 | inactive: -0.042 | inactive: 0.093 | inactive: -0.245 | inactive: -0.171 | inactive: -0.038 | – | – | – | – | – | – | – | inactive: 0.12 | inactive: -0.069
CLN5 (UniProt O75503) | inactive: 0.136 | inactive: 0.06 | inactive: 0.046 | inactive: -0.077 | – | active: -0.945 | inactive: 0.019 | inactive: 0.041 | inactive: -0.508 | inactive: 0.026 | inactive: -0.119 | – | inactive: 0.002 | inactive: -0.169 | – | – | inactive: 0.073 | inactive: -0.46 | inactive: -0.733 | inactive: 0.044
CNN1 (UniProt P51911) | inactive: -0.052 | inactive: 0.045 | inactive: -0.121 | active: -0.673 | – | – | inactive: 0.22 | inactive: 0.008 | inactive: 0 | inactive: 0.031 | inactive: 0.04 | – | inactive: 0.049 | inactive: 0.009 | – | – | – | – | – | –
CHPT1 (UniProt Q8WUD6) | inactive: 0.064 | inactive: -0.07 | inactive: 0.023 | inactive: 0.038 | active: -1.09 | – | inactive: 0.197 | inactive: -0.596 | inactive: -0.029 | inactive: -0.017 | inactive: 0.011 | inactive: -0.027 | inactive: -0.192 | inactive: 0.387 | – | – | inactive: 0.015 | inactive: -0.074 | – | –
CMIP (UniProt Q8IY22) | inactive: 0.147 | inactive: -0.257 | – | inactive: 0.129 | inactive: 0.036 | inactive: 0 | inactive: 0.115 | – | – | – | – | inactive: -0.262 | – | inactive: -0.147 | – | – | – | – | – | –
CLINT1 isoform 3 (UniProt Q14677) | inactive: -0.019 | – | inactive: 0.159 | inactive: 0.047 | inactive: -0.001 | inactive: 0.024 | inactive: -0.083 | inactive: 0.042 | inactive: 0.037 | inactive: -0.026 | inactive: -0.071 | inactive: -0.083 | inactive: 0.017 | inactive: 0.045 | – | – | inactive: -0.097 | active: 0.264 | inactive: 0.02 | inactive: 0.012
CMTM4 (UniProt Q8IZR5) | inactive: 0.01 | inactive: -0.092 | – | – | – | inactive: -0.125 | – | inactive: 0.194 | inactive: -0.129 | inactive: -0.117 | – | – | – | inactive: 0.101 | inactive: -0.042 | – | – | – | – | –
CKB (UniProt P12277) | inactive: 0.059 | inactive: 0.077 | inactive: 0.053 | inactive: -0.109 | inactive: -0.022 | inactive: 0.02 | inactive: 0.02 | inactive: 0.051 | inactive: 0.037 | inactive: -0.008 | inactive: 0.081 | inactive: 0.01 | inactive: -0.057 | inactive: 0.062 | – | – | inactive: 0.021 | inactive: -0.142 | inactive: -0.174 | inactive: -0.009
CNIH4 (UniProt Q9P003) | inactive: 0.021 | – | inactive: -0.143 | – | inactive: 0.012 | inactive: 0.122 | – | inactive: -0.084 | inactive: -0.012 | inactive: 0.064 | inactive: -0.026 | inactive: 0.028 | inactive: -0.118 | inactive: 0.048 | inactive: 0 | inactive: 0.162 | inactive: -0.057 | inactive: -0.104 | inactive: -0.111 | inactive: -0.012
COL18A1 (UniProt P39060) | inactive: -0.205 | inactive: -0.244 | inactive: 0.126 | inactive: 0.077 | inactive: -0.078 | inactive: 0.002 | inactive: -0.017 | inactive: 0.184 | inactive: -0.153 | inactive: 0.104 | inactive: -0.149 | inactive: -0.029 | inactive: 0.028 | inactive: -0.085 | inactive: 0.005 | inactive: 0.06 | inactive: -0.019 | inactive: 0.03 | – | –
CLSTN1 (UniProt O94985) | inactive: -0.055 | – | inactive: 0.102 | inactive: -0.095 | inactive: -0.826 | inactive: -0.159 | inactive: -0.182 | – | – | – | inactive: 0.024 | inactive: 0.034 | inactive: 0.103 | inactive: 0.023 | inactive: -0.171 | inactive: 0.301 | inactive: -0.249 | inactive: 0.127 | inactive: -0.007 | inactive: 0.022
CIAO2B (UniProt Q9Y3D0) | inactive: 0.021 | – | inactive: -0.393 | – | – | inactive: 0.099 | – | inactive: -0.014 | inactive: -0.133 | inactive: -0.077 | inactive: 0.024 | – | inactive: 0.097 | inactive: -0.129 | – | inactive: -0.038 | inactive: 0.317 | inactive: -0.271 | inactive: -0.044 | inactive: -0.049
CHURC1-FNTB (UniProt B4DL54) | inactive: 0.059 | inactive: 0.058 | – | inactive: -0.094 | inactive: 0.047 | inactive: -0.032 | inactive: -0.158 | – | – | – | – | inactive: 0.003 | inactive: 0.031 | inactive: -0.079 | inactive: -0.026 | – | – | – | inactive: -0.044 | inactive: -0.095
CIR1 (UniProt Q86X95) | inactive: -0.039 | inactive: -0.187 | active: 0.544 | inactive: 0.295 | inactive: -0.063 | inactive: 0.001 | inactive: -0.091 | – | – | – | inactive: -0.131 | inactive: -0.06 | inactive: 0.223 | inactive: -0.113 | – | – | inactive: 0.015 | inactive: 0.079 | inactive: 0.03 | inactive: 0.092

Complete entries from above. Order of values: log2 fold change [1] | log2 fold change [2] | log2 fold change [3] | log2 fold change (gandotinib) | log2 fold change (ispinesib) | log2 fold change (bafetinib) | log2 fold change [4] | log2 fold change (nilotinib) | log2 fold change [5] | log2 fold change [6] | log2 fold change [7] | log2 fold change [8] | log2 fold change (tipifarnib) | log2 fold change (mubritinib) | log2 fold change (tozasertib) | log2 fold change (duvelisib) | log2 fold change [9] | log2 fold change (dasatinib) | log2 fold change (crizotinib) | log2 fold change (doramapimod)
CLIP1 isoform 2 (UniProt P30622) is listed as inactive: -0.014 | inactive: 0.072 | inactive: -0.01 | inactive: 0.105 | inactive: 0.034 | inactive: -0.05 | inactive: 0.08 | inactive: 0.012 | inactive: -0.015 | inactive: -0.043 | inactive: 0.065 | inactive: -0.031 | inactive: 0.021 | inactive: 0.037 | – | – | – | – | – | –
CLINT1 isoform 3 (UniProt Q14677) is listed as inactive: -0.019 | – | inactive: 0.159 | inactive: 0.047 | inactive: -0.001 | inactive: 0.024 | inactive: -0.083 | inactive: 0.042 | inactive: 0.037 | inactive: -0.026 | inactive: -0.071 | inactive: -0.083 | inactive: 0.017 | inactive: 0.045 | – | – | inactive: -0.097 | active: 0.264 | inactive: 0.02 | inactive: 0.012
